Results deposited as PubChem BioAssay AID504744 (Drosophila RNAi Screening Center, 2011)

Screen: 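Find genes whose loss alters insulin-driven dAkt phosphorylation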 (primary screen)
Cell system: Drosophila Kc167 cells
Reagents: long dsRNA against Drosophila genes, 250 ng dsRNA per well of a 384-well plate
Time to read-out: 3 days of knock-down, then overnight serum-free starvation before stimulation
Challenge: bovine insulin at 387 nM for 10 minutes after 12 h without serum
Detection: 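Per-well phospho-dAkt level from an in-cell fluorescent antibody stain, divided by a DNA-dye signal; log2 residuals turned into z-scores that take cell number into account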
Rule for the call: 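Under insulin, a gene counts as a hit if the average z-score of two replicates lies above 2.5 or below -2.5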
The screen tested about 23,000 reagents; this is an unselected part of those that have a named target and a result. In the full data, 98 (0.43%) were called active. 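Only hit calls are given; the phospho-dAkt signals, z-scores and hit direction were not deposited.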 The numbers tell different reagents against one gene apart.

Shmt (GeneID 31524): outcome = inactive
EcR (GeneID 35540) #1: outcome = inactive
EcR (GeneID 35540) #2: outcome = inactive
Pfas (GeneID 33847): outcome = inactive
CG34230 (GeneID 5740558): outcome = inactive
CG34299 (GeneID 5740430): outcome = inactive
CG34129 (GeneID 43181): outcome = inactive
dcma (GeneID 5740672) #1: outcome = inactive
dcma (GeneID 5740672) #2: outcome = inactive
Orco (GeneID 40650): outcome = inactive
CG3982 (GeneID 39084): outcome = inactive
M6 (GeneID 40383): outcome = inactive
HIPP1 (GeneID 40302): outcome = inactive
CG10559 (GeneID 43063): outcome = inactive
pbl (GeneID 38879): outcome = inactive
UQCR-C2 (GeneID 39846): outcome = inactive
CG32652 (retired record) (GeneID 318141) #1: outcome = inactive
CG32652 (retired record) (GeneID 318141) #2: outcome = inactive
Tbc1d8-9 (GeneID 40361): outcome = inactive
CG18659 (GeneID 35929): outcome = inactive
Gmd (GeneID 33716): outcome = inactive
Inx3 (GeneID 44266): outcome = inactive
Mgtor (GeneID 36264): outcome = inactive
